# Reference: paper PMC12582157
# What was measured:
# β-conglutin [1] = assay: MST; conditions: none (non-modified version of HB8); Binding buffer; native protein; single-stranded DNA
# β-conglutin [2] = assay: sandwich ELAA; conditions: Binding buffer, native protein
# β-conglutin [3] = assay: ELAA; conditions: Binding buffer, native protein
# β-conglutin [4] = assay: competitive ELAA; conditions: LOD 273 pM (not a Kd); Binding buffer; native protein; label: 5'-biotin (Table S1), 5'-thiol (sandwich); single-stranded DNA
# [5] = immobilized capture, label: 5'-biotin (Table S1), 5'-thiol (sandwich), single-stranded DNA
# [6] = capture β-CBA-I or β-CBA-II, minimal binding, dAEIn in extended part after the primer, label: 5'-Cy5, 5'-biotin, synthetic backbone
sequence,measurement,setting,value
AGCTCCAGAAGATAAATTACAGGCCAAGATCTCGCGAGTTCCCAACAGGGCAGAGAGATGCCCGACACCAGTGCAACTAGGATACTATGACCCC [HB8N],binding result,β-conglutin [1],no binding
AGCTGACACAGCAGGTTGGTGGGGGTGGCTTCCAGTTGGGTTGACAATACGTAGGGACACGAAGTCCAACCACGAGTCGAGCAATCTCGAAAT [β-CBA-I],binding result,β-conglutin [2]; [5],binds
same,binding result,"β-conglutin [3]; β-conglutin on magnetic beads, label: 5'-biotin (Table S1), 5'-thiol (sandwich), single-stranded DNA",binds
GGTAAATGGAATATAGCCCAACACATTGAAGCCGGCAACTCGTACCCGAAGCGCGAGGGCAAGTACTCCAGCA [HB8_SC2],binding result,β-conglutin [2]; [6],binds more weakly
AGCTCCAGAAGATAAATTACAGGGGCCGGGGTGGCTCAGGCAAGGGGTTGACCTGTCGTAGGGATTGTTTTAACAACTAGGATACTATGACCCC [β-CBA-II],binding result,β-conglutin [2]; [5],binds
same,binding result,β-conglutin [4],binds
AGCTCCAGAAGATAAATTACAGGCCAAGATCTCGCGAGTTCCCAACAGGGCAGAGAGATGCCCGACACCAGTG [HB8_T1],binding result,"β-conglutin [2]; capture β-CBA-I, SGQ or β-CBA-II, dA in nt 24-73 = dAEIn, label: 5'-Cy5 (MST), 5'-biotin (ELAA, BLI), synthetic backbone",binds
same,binding result,"β-conglutin [3]; Kd similar to HB8, dA in nt 24-73 = dAEIn, label: 5'-Cy5 (MST), 5'-biotin (ELAA, BLI), synthetic backbone",binds
AGCTCCAGAAGATAAATTACAGGCCAAGATCTCGCGAGTTCCCAACAGGGCAGAGAGATGCCCGACACCAGTGCAACTAGGATACTATGACCCC [HB8],binding result,"β-conglutin [2]; capture β-CBA-I, SGQ or β-CBA-II, dA outside the 5' primer region (nt 24-94) replaced by indole-modified dA (dAEIn), label: 5'-Cy5 (MST), 5'-biotin (ELAA, BLI), synthetic backbone",binds
GGTGGGGGTGG [SGQ],binding result,β-conglutin [2]; [5],binds
AGCTCCAGAAGATAAATTACAGGGCGTATGCGGAGCATCAACTAAGTTCGATTCATTGCGCCGAGAACACCACAACGCAACGACCCCGGCAGCA [HB8_SC1],binding result,β-conglutin [2]; [6],binds more weakly

# Construct, isoform or probe ends are uncertain for at least one entry. For some assays here: Negatives hold for the conditions tested. For some assays here: A weaker result is weaker than the reference pair of the same experiment. For some assays here: At least one verdict was read from the data and is not stated in words by the source.
